Assay [1] addresses bioSox2 (bio-TEV-Sox2), biotinylated by birA (mouse), P48432. Nature of the assay: affinity purification with mass spectrometry; bioSox2 complexes from nuclear extracts of E18.5 lungs of bioSox2/birA mice held on streptavidin Dynabeads M-280, 4 °C, wash with 100 mM KCl and 0.02% NP-40; birA-only mice as control; MALDI-TOF MS; in triplicate. To be noted: remark: other sources report otherwise.

The chains behind the UniProt entries cited, without tags or fusion partners.
UniProt P48432: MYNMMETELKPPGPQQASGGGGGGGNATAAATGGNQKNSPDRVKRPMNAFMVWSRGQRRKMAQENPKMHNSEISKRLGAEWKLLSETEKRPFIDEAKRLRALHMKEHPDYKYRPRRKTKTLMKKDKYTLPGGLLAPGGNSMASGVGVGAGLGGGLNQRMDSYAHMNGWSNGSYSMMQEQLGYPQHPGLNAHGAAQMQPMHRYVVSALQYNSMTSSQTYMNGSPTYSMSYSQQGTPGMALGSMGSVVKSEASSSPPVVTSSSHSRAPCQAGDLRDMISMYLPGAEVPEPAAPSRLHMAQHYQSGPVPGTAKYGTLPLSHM

In assay [2] the target is bioSox2 (bio-TEV-Sox2), biotinylated by birA (mouse) (UniProt P48432). The description is as above.

No constants are given. Whether binding was seen depends on the method and setting. In cells and extracts the contact can be indirect. Here binding means that the protein was enriched with, or labelled near, the bait; the list need not be complete.

B1: Tcf3 (endogenous), Q9Z1J1 1-584 (protein)
chain: MPQLGGGRGGAGGGGGGSGAGATSGGDDLGANDELIPFQDEGGEEQEPSSDTASAQRDLDEVKSSLVNESENQSSSSDSEAERRPQPARDAFQKPRDYFAEVRRPQDGAFFKGGAYPGYPFLMIPDLSSPYLSNGPLSPGGARTYLQMKWPLLDVPSSATVKDTRSPSPAHLSNKVPVVQHPHHMHPLTPLITYSNDHFSPASPPTHLSPEIDPKTGIPRPPHPSELSPYYPLSPGAVGQIPHPLGWLVPQQGQPMYSLPPGGFRHPYPALAMNASMSSLVSSRFPHMVAPAHPGLPTSGIPHPAIVSPIVKQEPAAPSLSPAVSAKSPVTVKKEEEKKPHVKKPLNAFMLYMKEMRAKVVAECTLKESAAINQILGRKWHNLSREEQAKYYELARKERQLHAQLYPTWSARDNYGKKKKRKREKQLSQTQSQQQIQEAEGALASKSKKPCIQYLPPEKPCDSPASSHGSALDSPATPSAALASPAAPAATHSEQAQPLSLTTKPEARAQLALHSAAFLSAKAAASNSSQMGSQPPLLSRPLPLGSMPAALLTSPPTFPATLHAHQALPVLQAQPLSLVTKSAH
modifications: here or on the partner: biotin on a specific lysine of the biotag (by birA)
B1: the binding entry in assay [1] is “binds”.

B2: Cavin1 (Ptrf) (protein, UniProt O54724 1-392)
chain: MEDVTLHIVERPYSGFPDASSEGPEPTQGEARATEEPSGTGSDELIKSDQVNGVLVLSLLDKIIGAVDQIQLTQAQLEERQAEMEGAVQSIQGELSKLGKAHATTSNTVSKLLEKVRKVSVNVKTVRGSLERQAGQIKKLEVNEAELLRRRNFKVMIYQDEVKLPAKLSVSKSLKESEALPEKEGDELGEGERPEDDTAAIELSSDEAVEVEEVIEESRAERIKRSGLRRVDDFKKAFSKEKMEKTKVRTRENLEKTRLKTKENLEKTRHTLEKRMNKLGTRLVPVERREKLKTSRDKLRKSFTPDHVVYARSKTAVYKVPPFTFHVKKIREGEVEVLKATEMVEVGPEDDEVGAERGEATDLLRGSSPDVHTLLEITEESDAVLVDKSDSD
In the case of B2, the binding result in assay [2] is recorded as “binds”.

B3: Dyskerin (protein, UniProt Q9ESX5 1-509)
chain: MADAEVITFPKKHKKKKDRKPLQEDDVAEIQHAEEFLIKPESKVAQLDTSQWPLLLKNFDKLNVRTAHYTPLPCGSNPLKREIGDYIRTGFINLDKPSNPSSHEVVAWIRRILRVEKTGHSGTLDPKVTGCLIVCIERATRLVKSQQSAGKEYVGIVRLHNAIEGGTQLSRALETLTGALFQRPPLIAAVKRQLRVRTIYESKMIEYDPERRLGIFWVSCEAGTYIRTLCVHLGLLLGVGGQMQELRRVRSGVMSEKDHMVTMHDVLDAQWLYDNHKDESYLRRVVYPLEKLLTSHKRLVMKDSAVNAICYGAKIMLPGLLRYEDGIEVNQEIVVITTKGEAICMAIALMTTAVISTCDHGIVAKIKRVIMERDTYPRKWGLGPKASQKKMMIKQGLLDKHGKPTDNTPATWKQDYIDYSDSGKNTLVTEAVQAPQLAAEAVNVIKRKRDSESESDETPTVPQLKEKKKKKDKKPKTVLESGGETGDGDNDTTKKKKKKKVKVVEEMSE
Take B3: the binding entry in assay [2] is reported as “binds”.

The values are drawn from publication PMC5847153.
